PubChem BioAssay AID1508588 – Peter MacCallum Cancer Centre – 2020

Assay: 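Genome-wide search for knock-downs that heighten vemurafenib action in melanoma cells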 (primary screen)
Cells: human WM266.4 melanoma cells (BRAF V600 mutant)
Reagent: siRNA pool against human genes, 40 nM
Time to read-out: 96 h from transfection to read-out
Challenge: vemurafenib 300 nM (about IC25), added 48 h after transfection, for 48 h; comparison arm got DMSO vehicle only
Measured: 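Cell gain (DAPI nuclei at end minus before drug, mean of two replicates) and medium lactate by absorbance per cell, both as ratio to non-targeting siRNA, also grouped into fold-change classes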
Scale: cell gain with vemurafenib: higher = more cell gain than with non-targeting siRNA; lactate per cell with vemurafenib: higher = more lactate made per cell
Rule for the call: 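a knock-down counts as enhancing when its fold-change classes with vehicle and with vemurafenib, taken together, show a stronger drug effect on cell gain or lactate per cell; exact class pairs not stated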
Meaning of the calls: active = enhances vemurafenib effect; inactive = no enhancement seen
In all, the deposit lists about 18,000 reagents; shown is a part drawn at random. Over the whole deposit, 790 (4.4%) were called active. 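Calls rest on a combination of fold-change classes in drug and vehicle arms, not all shown here.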

Gene,cell gain with vemurafenib,lactate per cell with vemurafenib,Call
SHANK3 (GeneID 85358),0.57,1.4,inactive
MEGF9 (GeneID 1955),1.01,0.96,inactive
ZNF839 (GeneID 55778),0.7,0.52,inactive
NME9 (GeneID 347736),0.75,1.34,inactive
TPST2 (GeneID 8459),0.18,1.12,inactive
DYNC1LI2 (GeneID 1783),0.98,0.8,inactive
LIN54 (GeneID 132660),-0.1,2.63,inactive
NAGS (GeneID 162417),0.66,1.44,inactive
STMN3 (GeneID 50861),0.41,1.22,inactive
FLT1 (GeneID 2321),0.92,0.64,inactive
CRNN (GeneID 49860),0.01,2.5,inactive
TULP1 (GeneID 7287),0.81,0.94,inactive
DCANP1 (GeneID 140947),0.43,1.06,inactive
PCBP3 (GeneID 54039),0.07,1.01,inactive
CHKB (GeneID 1120),1.02,0.63,inactive
CLK1 (GeneID 1195),0.96,1.03,inactive
CLCN6 (GeneID 1185),0.34,0.98,inactive
USP54 (GeneID 159195),1.08,0.77,inactive
CHMP3 (GeneID 51652),0.66,0.65,inactive
KCNJ4 (GeneID 3761),0.53,0.55,inactive
GNMT (GeneID 27232),0.63,0.56,inactive
AP3D1 (GeneID 8943),1.05,0.76,inactive
PCF11 (GeneID 51585),-0.07,1.36,inactive
YES1 (GeneID 7525),0.69,0.91,inactive
ATP6V0B (GeneID 533),0.42,1.05,inactive
ARL6IP5 (GeneID 10550),0.93,0.6,inactive
ATOSA (GeneID 56204),0.58,1.17,inactive
AHCTF1 (GeneID 25909),0.27,1.64,inactive
NR1I2 (GeneID 8856),0.42,0.6,inactive
ZNF384 (GeneID 171017),0.31,1.89,inactive
VCPIP1 (GeneID 80124),0.57,0.68,inactive
TMEM198 (GeneID 130612),1.02,1.21,inactive
BACE2 (GeneID 25825),0.52,1.2,inactive
PGLYRP2 (GeneID 114770),0.42,1.32,inactive
SLC35A4 (GeneID 113829),0.79,0.59,inactive
KRTAP4-2 (GeneID 85291),0.78,1.38,inactive
TOX2 (GeneID 84969),1.03,0.78,inactive
ETNK1 (GeneID 55500),1.17,1.02,inactive
SH3BP4 (GeneID 23677),0.65,0.46,inactive
TAAR8 (GeneID 83551),0.88,0.75,inactive
SLC44A2 (GeneID 57153),0.07,2.31,inactive
SFT2D3 (GeneID 84826),0.68,0.68,inactive
TIPE3 (GeneID 388121),0.18,0.7,inactive
MRAP (GeneID 56246),0.86,0.6,inactive
HSFY2 (GeneID 159119),0.71,0.74,inactive
MTMR10 (GeneID 54893),0.73,0.7,inactive
HNRNPA2B1 (GeneID 3181),0.16,1.57,inactive
LAMA2 (GeneID 3908),0.44,0.68,inactive
RNF181 (GeneID 51255),1.22,0.57,inactive
PPP2R2D (GeneID 55844),0.66,1.07,inactive
LRRC74A (GeneID 145497),0.67,1.18,inactive
FUBP3 (GeneID 8939),1.38,0.74,inactive
EFCAB5 (GeneID 374786),1.07,0.65,inactive
ACSL5 (GeneID 51703),0.85,0.89,inactive
FGFR3 (GeneID 2261),0.25,0.97,inactive
SUPT3H (GeneID 8464),0.53,1.1,inactive
NT5C (GeneID 30833),0.77,1,inactive
HELQ (GeneID 113510),0.46,0.42,inactive
NCBP2 (GeneID 22916),0.1,1.88,inactive
SLC22A14 (GeneID 9389),0.44,0.48,active
GTPBP6 (GeneID 8225),0.3,0.92,inactive
MARCHF10 (GeneID 162333),0.98,0.68,inactive
CXCL11 (GeneID 6373),0.35,0.78,inactive
GCLC (GeneID 2729),0.47,1.21,inactive
C20orf204 (GeneID 284739),0.49,0.93,inactive
RTL10 (GeneID 79680),-0.1,1.18,inactive
ZSWIM8 (GeneID 23053),0.56,1.16,inactive
COPRS (GeneID 55352),1.05,0.4,inactive
GPRC6A (GeneID 222545),0.53,0.94,inactive
JUND (GeneID 3727),0.42,0.6,inactive
IGSF10 (GeneID 285313),0.2,1.44,inactive
SKAP2 (GeneID 8935),0.95,0.36,inactive
ASPDH (GeneID 554235),0.46,1.58,inactive
CFHR2 (GeneID 3080),0.5,1.21,inactive
BTNL8 (GeneID 79908),1.08,0.47,inactive
ADGRE1 (GeneID 2015),0.41,1.45,inactive
DHX40 (GeneID 79665),0.58,1.12,inactive
PCDHGB2 (GeneID 56103),0.22,1.08,inactive
ZYG11B (GeneID 79699),0.83,0.74,inactive
TMEM9B (GeneID 56674),0.32,1.19,inactive
OR5T3 (GeneID 390154),-0.03,2.28,inactive
CFAP418 (GeneID 157657),0.96,0.6,inactive
CD68 (GeneID 968),0.21,1.39,inactive
KLHL28 (GeneID 54813),0.5,1.29,inactive
SMU1 (GeneID 55234),-0.16,2.6,inactive
ZNF714 (GeneID 148206),0.78,0.8,inactive
CNDP1 (GeneID 84735),0.4,2.15,inactive
OR2H2 (GeneID 7932),0.95,1.03,inactive
TBC1D1 (GeneID 23216),0.64,1,inactive
USP32 (GeneID 84669),0.54,0.52,inactive
NOLC1 (GeneID 9221),0.01,2.14,inactive
OR10G8 (GeneID 219869),0.22,1.02,inactive
ZFAND6 (GeneID 54469),1,0.94,inactive
ZCCHC7 (GeneID 84186),0.21,2.33,inactive
ATP6V0D2 (GeneID 245972),0.71,0.7,inactive
METTL2A (GeneID 339175),0.37,2.1,inactive
CHD2 (GeneID 1106),1.04,0.77,inactive
SNRNP25 (GeneID 79622),0.18,1.42,inactive
CHRNA2 (GeneID 1135),0.44,0.72,inactive
SPTA1 (GeneID 6708),0.31,0.73,inactive
NOSTRIN (GeneID 115677),0.32,1.5,inactive
INSM1 (GeneID 3642),0.46,1.65,inactive
MAIP1 (GeneID 79568),0.16,0.64,active
ACTR3B (GeneID 57180),0.87,0.83,inactive
TLX2 (GeneID 3196),0.87,0.92,inactive
CCR3 (GeneID 1232),0.37,0.84,inactive
HNF4A (GeneID 3172),0.72,1,inactive
